According to patent publication US11661433B2, “Near-IR activatable fluorescent small molecules with dual modes of cytotoxicity” (VIRGINIA COMMONWEALTH UNIVERSITY, priority 2018, dated 2023):

Assay: Singlet oxygen generation by DPBF method
Type: physicochemical
Conditions: near-IR light 720-740 nm

CC(=O)C(=C(C)O)C1=C(C=CC2=[N+](C)c3ccccc3C2(C)C)CCC1=CC=C1N(C)c2ccccc2C1(C)C.[Cl-] [IR797-acac]
t1/2^DPBF (decrease in DPBF absorbance at 415 nm): 6 min
singlet oxygen quantum yield φΔ (aerated DMF, relative to methylene blue): 0.017
